Assay results from patent US7754738B2, “Pyrazole and pyrrole carboxamide insecticides” (E.I. du Pont de Nemours and Company, priority 2002, dated 2010).
Some results were stated once for a whole list of compounds, not compound by compound.

Each compound was assayed on fall armyworm (Spodoptera frugiperda) (assay: Test E: control of fall armyworm, microtiter plate with treated diet). Details: 25 μL of 1050 μM (or lower) compound per well on 175 μL diet; infested with eggs; 6 days at 27° C.
Type: in vivo
In the case of `Cc1cccc(Cl)c1NC(=O)c1cc(C(F)(F)F)nn1-c1ncccc1Cl` [Compound 17], the “live insect killed (fall armyworm control)” value (from here on “live insect killed”) is reported as at least 90%. `Cc1ccc(NC(=O)c2cc(C(F)(F)F)nn2-c2ncccc2Cl)c(Br)c1` [Compound 114] was tested, and the “live insect killed” value was at least 90%. `O=C(Nc1ccc(C(F)(F)F)cc1)c1cc(C(F)(F)F)nn1-c1ncccc1Cl` [Compound 94] was tested, and the “live insect killed” value was at least 90%. `O=C(Nc1ccc(C(F)(F)F)cc1Cl)c1cc(C(F)(F)F)nn1-c1ncccc1Cl` [Compound 100] was tested, and the “live insect killed” value was at least 90%. For `O=C(Nc1c(F)cccc1C(F)(F)F)c1cc(C(F)(F)F)nn1-c1ncccc1Cl` [Compound 28], the “live insect killed” value was at least 90%. In the case of `O=C(Nc1cc(C(F)(F)F)ccc1Br)c1cc(C(F)(F)F)nn1-c1ncccc1Cl` [Compound 115], the “live insect killed” value is reported as at least 90%. For `O=C(Nc1c(Br)cc(F)cc1Br)c1cc(C(F)(F)F)nn1-c1ncccc1Cl` [Compound 26], the “live insect killed” value was at least 90%. With `Cc1cc(C#N)cc(Cl)c1NC(=O)c1cc(C(F)(F)F)nn1-c1ncccc1Cl` [Compound 32] the “live insect killed” value was at least 90%. `O=C(Nc1ccc(C(F)(F)F)cc1Br)c1cc(C(F)(F)F)nn1-c1ncccc1Cl` [Compound 91] was tested, and the “live insect killed” value was at least 90%. For `O=C(Nc1c(F)cc(F)cc1F)c1cc(C(F)(F)F)nn1-c1ncccc1Cl` [Compound 12], the “live insect killed” value was at least 90%. In the case of `N#Cc1cc(Cl)c(NC(=O)c2cc(C(F)(F)F)nn2-c2ncccc2Cl)c(Cl)c1` [Compound 31], the “live insect killed” value is reported as at least 90%. For `Cc1ccccc1NC(=O)c1cc(C(F)(F)F)nn1-c1ncccc1Cl` [Compound 44], the “live insect killed” value was at least 90%. `O=C(Nc1ccc(Cl)cc1Cl)c1cc(C(F)(F)F)nn1-c1ncccc1Cl` [Compound 121] was tested, and the “live insect killed” value was at least 90%. In the case of `O=C(Nc1ccc(Br)cc1Cl)c1cc(C(F)(F)F)nn1-c1ncccc1Cl` [Compound 120], the “live insect killed” value is reported as at least 90%. In the case of `COc1cccc(C)c1NC(=O)c1cc(C(F)(F)F)nn1-c1ncccc1Cl` [Compound 29], the “live insect killed” value is reported as at least 90%. `O=C(Nc1c(Cl)cccc1Cl)c1cc(C(F)(F)F)nn1-c1ncccc1Cl` [Compound 15] was tested, and the “live insect killed” value was at least 90%. In the case of `Cc1cccc(C)c1NC(=O)c1cc(C(F)(F)F)nn1-c1ncccc1Cl` [Compound 22], the “live insect killed” value is reported as at least 90%. For `Cc1cc(Cl)cc(Cl)c1NC(=O)c1cc(C(F)(F)F)nn1-c1ncccc1Cl` [Compound 34], the “live insect killed” value was at least 90%. With `Cc1cc(Br)c(NC(=O)c2cc(C(F)(F)F)nn2-c2ncccc2Cl)c(Br)c1` [Compound 11] the “live insect killed” value was at least 90%. For `Cc1cc(C)c(NC(=O)c2cc(C(F)(F)F)nn2-c2ncccc2Cl)c(C)c1` [Compound 19], the “live insect killed” value was at least 90%. For `O=C(Nc1ccc([N+](=O)[O-])cc1)c1cc(C(F)(F)F)nn1-c1ncccc1Cl` [Compound 69], the “live insect killed” value was at least 90%. `Cc1cc(C)c(NC(=O)c2cc(C(F)(F)F)nn2-c2ncccc2Cl)c(Cl)c1` [Compound 27] was tested, and the “live insect killed” value was at least 90%. For `Cc1cc(Br)ccc1NC(=O)c1cc(C(F)(F)F)nn1-c1ncccc1Cl` [Compound 64], the “live insect killed” value was at least 90%. With `O=C(Nc1c(Cl)cc(Cl)cc1Cl)c1cc(C(F)(F)F)nn1-c1ncccc1Cl` [Compound 14] the “live insect killed” value was at least 90%. For `O=C(Nc1c(Br)cc([N+](=O)[O-])cc1Br)c1cc(C(F)(F)F)nn1-c1ncccc1Cl` [Compound 10], the “live insect killed” value was at least 90%. In the case of `O=C(Nc1c(F)cccc1F)c1cc(C(F)(F)F)nn1-c1ncccc1Cl` [Compound 13], the “live insect killed” value is reported as at least 90%.

Each compound was assayed on tobacco budworm (Heliothis virescens) (assay: Test C: control of tobacco budworm on cotton plant, foliar spray). Details: sprayed at 50 ppm, 2-day-old larvae, 6 days, visual rating.
Type: in vivo
With `O=C(Nc1ccc(Cl)cc1Cl)c1cc(C(F)(F)F)nn1-c1ncccc1Cl` [Compound 8, 1-(3-chloro-2-pyridinyl)-N-(2,4-dichlorophenyl)-3-(trifluoromethyl)-1H-pyrazole-5-carboxamide] the “feeding damage (plant protection)” value was at most 20%. For `O=C(Nc1c(F)cc(F)cc1Br)c1cc(Br)nn1-c1ncccc1Cl` [Compound 7, N-(2-bromo-4,6-difluorophenyl)-1-(3-chloro-2-pyridinyl)-3-bromo-1H-pyrazole-5-carboxamide], the “feeding damage (plant protection)” value was at most 20%.

These compounds were tested on diamondback moth (Plutella xylostella) (assay: Test A: control of diamondback moth on radish plant, foliar spray). Details: sprayed at 50 ppm, neonate larvae, 6 days, 25° C., visual assessment.
Type: in vivo
For `N#Cc1cc(Cl)c(NC(=O)c2cc(Cl)nn2-c2ncccc2Cl)c(Cl)c1` [Compound 126], the “feeding damage (plant protection, ratings of 0-1)” value was at most 10%. `O=C(Nc1ccc(Cl)cc1Cl)c1cc(C(F)(F)F)nn1-c1ncccc1Cl` [Compound 8, 1-(3-chloro-2-pyridinyl)-N-(2,4-dichlorophenyl)-3-(trifluoromethyl)-1H-pyrazole-5-carboxamide] was tested, and the “feeding damage (plant protection, ratings of 0-1)” value was at most 10%. For `O=C(Nc1c(F)cc(F)cc1Br)c1cc(Br)nn1-c1ncccc1Cl` [Compound 7, N-(2-bromo-4,6-difluorophenyl)-1-(3-chloro-2-pyridinyl)-3-bromo-1H-pyrazole-5-carboxamide], the “feeding damage (plant protection, ratings of 0-1)” value was at most 10%. `Cc1cccnc1NC(=O)c1cc(C(F)(F)F)nn1-c1ncccc1Cl` [Compound 128] was tested, and the “feeding damage (plant protection, ratings of 0-1)” value was at most 10%. In the case of `O=C(Nc1c(F)cc(F)cc1Br)c1cc(Cl)nn1-c1ncccc1Cl` [Compound 127], the “feeding damage (plant protection, ratings of 0-1)” value is reported as at most 10%.

Same assay, conditions: sprayed at 250 ppm, neonate larvae, 6 days, 25° C., visual assessment
`Cc1cccc(Cl)c1NC(=O)c1cc(C(F)(F)F)nn1-c1ncccc1Cl` [Compound 1, N-(2-chloro-6-methylphenyl)-1-(3-chloro-2-pyridinyl)-3-(trifluoromethyl)-1H-pyrazole-5-carboxamide] was tested, and the “feeding damage (plant protection, ratings of 0-1)” value was at most 10%.

Each compound was assayed on fall armyworm (Spodoptera frugiperda) (assay: Test B: control of fall armyworm on corn (maize) plant, foliar spray). Details: sprayed at 50 ppm, 1-day-old larvae, 6 days, visual rating.
Type: in vivo
In the case of `O=C(Nc1ccc(Cl)cc1Cl)c1cc(C(F)(F)F)nn1-c1ncccc1Cl` [Compound 8, 1-(3-chloro-2-pyridinyl)-N-(2,4-dichlorophenyl)-3-(trifluoromethyl)-1H-pyrazole-5-carboxamide], the “feeding damage (plant protection)” value is reported as at most 10%. For `O=C(Nc1c(F)cc(F)cc1Br)c1cc(Br)nn1-c1ncccc1Cl` [Compound 7, N-(2-bromo-4,6-difluorophenyl)-1-(3-chloro-2-pyridinyl)-3-bromo-1H-pyrazole-5-carboxamide], the “feeding damage (plant protection)” value was at most 10%. In the case of `O=C(Nc1c(F)cc(F)cc1Br)c1cc(Cl)nn1-c1ncccc1Cl` [Compound 127], the “feeding damage (plant protection)” value is reported as at most 10%. `Cc1ccccc1NC(=O)c1cc(Br)nn1-c1ncccc1Cl` [Compound 6] was tested, and the “feeding damage (plant protection)” value was at most 10%.

Same assay, conditions: sprayed at 250 ppm, 1-day-old larvae, 6 days, visual rating
In the case of `Cc1cccc(Cl)c1NC(=O)c1cc(C(F)(F)F)nn1-c1ncccc1Cl` [Compound 1, N-(2-chloro-6-methylphenyl)-1-(3-chloro-2-pyridinyl)-3-(trifluoromethyl)-1H-pyrazole-5-carboxamide], the “feeding damage (plant protection)” value is reported as at most 10%.
